From patent publication US20030143656A1
No constants are given. Whether binding was seen depends on the method and setting. In cells and extracts the contact can be indirect. Some binding calls cover weakened binding; strength is not graded here. Where a sequence is shown, tags or fusion partners need not be part of it.

The chains behind the UniProt entries cited, without tags or fusion partners. Where a name states a change or a piece, a line headed by the entry shows the natural chain unless it says otherwise. A line that says so, or that is headed by a name, gives the form on record, which may keep a tag or linker. Residues count along the entry.
UniProt P23443: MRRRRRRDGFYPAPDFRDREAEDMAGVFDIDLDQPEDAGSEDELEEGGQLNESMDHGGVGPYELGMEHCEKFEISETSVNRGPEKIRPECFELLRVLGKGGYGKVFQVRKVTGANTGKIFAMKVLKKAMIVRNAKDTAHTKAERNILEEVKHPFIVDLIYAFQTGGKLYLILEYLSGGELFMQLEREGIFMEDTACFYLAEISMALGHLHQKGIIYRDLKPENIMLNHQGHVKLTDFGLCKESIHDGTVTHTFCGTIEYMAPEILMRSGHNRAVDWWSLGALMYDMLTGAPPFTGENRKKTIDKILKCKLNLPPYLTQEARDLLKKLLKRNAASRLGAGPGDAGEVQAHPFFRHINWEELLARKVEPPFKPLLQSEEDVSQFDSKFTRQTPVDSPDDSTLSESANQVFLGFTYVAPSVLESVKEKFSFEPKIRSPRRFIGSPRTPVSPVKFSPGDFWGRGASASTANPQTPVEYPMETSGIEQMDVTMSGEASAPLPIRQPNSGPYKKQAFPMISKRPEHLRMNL
full length S6K1 mutant in which Thr412 and all five phosphorylated C-terminal residues were mutated to acidic residues (P23443, form named): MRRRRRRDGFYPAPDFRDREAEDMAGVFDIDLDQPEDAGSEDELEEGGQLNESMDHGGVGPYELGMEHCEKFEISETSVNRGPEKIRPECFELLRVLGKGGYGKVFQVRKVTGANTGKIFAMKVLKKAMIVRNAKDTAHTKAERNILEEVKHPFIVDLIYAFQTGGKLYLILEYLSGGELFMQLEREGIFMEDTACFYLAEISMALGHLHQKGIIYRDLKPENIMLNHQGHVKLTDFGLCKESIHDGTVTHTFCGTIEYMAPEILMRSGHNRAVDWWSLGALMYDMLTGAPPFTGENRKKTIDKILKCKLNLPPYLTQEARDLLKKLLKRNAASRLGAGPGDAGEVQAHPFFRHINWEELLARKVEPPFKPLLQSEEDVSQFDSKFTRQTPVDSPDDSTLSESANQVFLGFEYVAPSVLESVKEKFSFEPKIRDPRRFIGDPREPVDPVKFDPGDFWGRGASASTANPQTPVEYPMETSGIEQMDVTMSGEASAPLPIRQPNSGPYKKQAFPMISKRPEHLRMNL

Target: T1, GST-PDK1 (wild type) (human) (UniProt O15530)
T1 sequence (looked up): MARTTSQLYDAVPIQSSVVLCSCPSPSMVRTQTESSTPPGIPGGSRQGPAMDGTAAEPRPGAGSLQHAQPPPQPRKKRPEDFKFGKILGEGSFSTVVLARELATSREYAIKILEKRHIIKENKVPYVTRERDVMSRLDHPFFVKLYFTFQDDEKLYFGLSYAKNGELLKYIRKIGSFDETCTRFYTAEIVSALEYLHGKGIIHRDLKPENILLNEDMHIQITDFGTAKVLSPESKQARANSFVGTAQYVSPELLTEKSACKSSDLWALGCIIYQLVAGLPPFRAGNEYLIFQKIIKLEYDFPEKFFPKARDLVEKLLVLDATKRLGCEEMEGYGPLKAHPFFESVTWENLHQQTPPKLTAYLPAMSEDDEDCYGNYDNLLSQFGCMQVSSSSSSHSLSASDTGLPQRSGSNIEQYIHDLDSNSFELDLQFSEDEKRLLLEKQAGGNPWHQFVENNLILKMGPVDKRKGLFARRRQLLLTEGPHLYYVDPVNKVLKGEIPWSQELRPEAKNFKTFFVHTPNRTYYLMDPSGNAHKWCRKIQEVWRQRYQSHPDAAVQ
Test: binding experiment not described (presumably pull-down)

binding: binds
Substance: full length S6K1 mutant in which Thr412 and all five phosphorylated C-terminal residues were mutated to acidic residues (from UniProt P23443 1-525) (enzyme)
